{"source": "PubChem BioAssay AID485353", "about": "(National Center for Advancing Translational Sciences (NCATS), 2010)", "note": "Out of some 330,000 compounds screened, about 610 (0.18%) were called active. The shares of active, inactive and inconclusive entries below differ from those in the screen. The call rests on the fitted dose curve. Where the call is inconclusive, the potency comes from a doubtful curve fit. Potency means the concentration at half of the fitted maximal effect.", "data": [{"experiment": "qHTS of Yeast-based Assay for SARS-CoV PLP; further: nearly all actives have a fitted effect of over 55% in size; on activity, positive = growth rescue: 0% is about no effect", "conditions": "S. cerevisiae expressing SARS-CoV PLpro; Potency: growth rescue; activity, positive = growth rescue: at 32.9 µM (top of the series)", "values": [{"smiles": "C#CC[N+](C)(C)CCCCCCCCCC", "Potency": "active: 3.16 µM"}, {"smiles": "O=C(NN=C1CCCC1)c1ccc(O)cc1", "Potency": "inconclusive: 2.82 µM [activator, partial curve, poor fit]"}, {"smiles": "Cc1ccc([N+](=O)[O-])cc1NC(=O)c1ccc(CSc2ccccc2)cc1", "Potency": "inconclusive: 20 µM [activator, single point]"}, {"smiles": "COc1cc(C(C)=O)ccc1OCC(=O)Nc1ccc2nc(C)sc2c1", "activity, positive = growth rescue": "inactive: -1.36%"}, {"smiles": "Cc1ccc(C(=O)N/N=C/c2ccc([N+](=O)[O-])s2)cc1", "activity, positive = growth rescue": "inactive: -10.7%"}, {"smiles": "O=C(Nc1cc(Cl)ccc1F)C1=COCCO1", "activity, positive = growth rescue": "inactive: -1.99%"}, {"smiles": "O=C(NN1CCN(Cc2ccccc2Cl)CC1)c1ccc(Cl)cc1", "Potency": "inconclusive: 12.6 µM [activator, partial curve]"}, {"smiles": "N=c1n(Cc2ccccc2)c2ccccc2n1CC(O)COc1ccccc1", "note": "(centres undefined)", "Potency": "active: 22.4 µM"}, {"smiles": "COc1ccc(-c2oc3ccccc3c2C#Cc2cncn2C)cc1", "activity, positive = growth rescue": "inactive: 6.17%"}, {"smiles": "COC(=O)c1ccc(Cn2nnc3c(=O)[nH]c(C4CCN(S(=O)(=O)c5cc(C)ccc5C)CC4)nc32)cc1", "Potency": "inconclusive: 20 µM [activator, single point]"}, {"smiles": "O=C(c1cccs1)N1CCn2c1nc1ccccc12", "Potency": "inconclusive: 20 µM [activator, single point]"}, {"smiles": "c1ccc(Nc2nc3ccccc3[nH]2)nc1", "Potency": "inconclusive: 11.2 µM [activator, partial curve]"}, {"smiles": "Cc1cc(C)c(S(=O)(=O)N(CC(=O)N2CCOCC2)C2CCCCC2)c(C)c1", "Potency": "inconclusive: 20 µM [activator, single point]"}, {"smiles": "Nc1c(C(=O)Nc2ccc3c(c2)OCCO3)nnn1Cc1cccc(Cl)c1", "Potency": "inconclusive: 20 µM [activator, single point]"}, {"smiles": "CC1CCCCC1NC(=O)CCS(=O)(=O)c1ccc(Cl)cc1", "note": "(centres undefined)", "activity, positive = growth rescue": "inactive: 1.91%"}, {"smiles": "CC(C)NS(=O)(=O)c1ccc(NC(=O)Cc2cccs2)cc1", "activity, positive = growth rescue": "inactive: 18.5%"}, {"smiles": "Cn1c(=O)[nH]c(=O)c2c1nc(Br)n2CCCSc1nc2ccccc2o1", "Potency": "inconclusive: 3.16 µM [activator, single point]"}, {"smiles": "CNC(=O)N(O)C1N(/N=C/c2ccc(N(C)C)cc2)C(=S)SC1(C)C", "note": "(centres undefined)", "activity, positive = growth rescue": "inactive: -0.0037%"}, {"smiles": "COc1cccc(-c2nc(CS(=O)(=O)CC(=O)Nc3ccccc3Cl)c(C)o2)c1", "Potency": "inconclusive: 3.55 µM [activator, single point]"}, {"smiles": "O=C(CNC(=O)c1ccc(Cl)cc1)OCC(=O)c1ccccc1", "Potency": "inconclusive: 20 µM [activator, single point]"}, {"smiles": "COc1ccc(NC(=O)CSc2nc3ccccc3nc2N2CCCCC2)cc1", "Potency": "inconclusive: 4.47 µM [activator, single point]"}, {"smiles": "Cc1ccc(S(=O)(=O)N2CN(Cc3ccco3)c3nc4ccccc4nc32)cc1C", "activity, positive = growth rescue": "inactive: -0.359%"}, {"smiles": "O=C(NCCCn1ccnc1)c1cc2cc([N+](=O)[O-])ccc2oc1=O", "Potency": "inconclusive: 10 µM [activator, single point]"}, {"smiles": "CN(C)S(=O)(=O)Oc1ccc(C(=O)Nc2cccc(Cl)c2)cc1", "activity, positive = growth rescue": "inactive: -0.0167%"}, {"smiles": "CCN(CC)C(=S)NC(=O)C12CC3CC(CC(C3)C1)C2", "activity, positive = growth rescue": "inactive: 6.46%"}, {"smiles": "O=C(c1ccc(Cl)cc1)C1CCN(C(=O)C2CC2)CC1", "activity, positive = growth rescue": "inactive: -0.886%"}, {"smiles": "C[C@H](NC(=O)Nc1ccc2c(c1)OCCO2)C(=O)O", "Potency": "inconclusive: 12.6 µM [activator, single point]"}, {"smiles": "COC(=O)c1ccc(OC)c(CSc2nnc(COc3ccccc3)o2)c1", "Potency": "inconclusive: 17.8 µM [activator, single point]"}, {"smiles": "Cc1nn(Cc2ccccc2)c(Cl)c1C(=O)NC1CCCc2ccccc21", "note": "(centres undefined)", "Potency": "inconclusive: 0.316 µM [activator, full curve]"}, {"smiles": "CC(=O)/C=C(\\C)Nc1ccc(-c2cnc(-c3ccccc3)o2)cc1", "Potency": "inconclusive: 20 µM [activator, single point]"}, {"smiles": "Cc1nnsc1C(=O)N1CCCC(N2CCN(c3ccc(F)cc3)CC2)C1", "note": "(centres undefined)", "Potency": "active: 0.708 µM"}, {"smiles": "CCOCCOc1nc2c(c(=O)n(C)c(=O)n2C)n1CCc1ccccc1", "Potency": "inconclusive: 20 µM [activator, single point]"}, {"smiles": "O=C(Nc1ccccc1)N1CCN(c2nc3ccccc3s2)CC1", "activity, positive = growth rescue": "inactive: -16.7%"}, {"smiles": "c1ccc(-c2ccc(-c3ccccn3)nn2)nc1", "Potency": "inconclusive: 20 µM [activator, single point]"}, {"smiles": "COc1cc(C(=S)N2CCOCC2)cc(OC)c1OC(=O)c1ccccc1[N+](=O)[O-]", "Potency": "inconclusive: 20 µM [activator, single point]"}, {"smiles": "CCC(=O)N1CCc2cc(S(=O)(=O)NC(Cc3ccccc3)C(=O)O)ccc21", "note": "(centres undefined)", "activity, positive = growth rescue": "inactive: 0.906%"}, {"smiles": "O=C(Nc1ccc(Cl)cc1)Nc1nnc(SCc2ccc(Cl)cc2)s1", "activity, positive = growth rescue": "inactive: -29.3%"}, {"smiles": "O=C1CC(Sc2ncccn2)C(=O)N1c1ccccc1C(F)(F)F", "note": "(centres undefined)", "activity, positive = growth rescue": "inactive: 3.84%"}, {"smiles": "Cc1cc(C)c(S(C)(=O)=O)c(S(=O)c2ccc(Cl)cc2)n1", "note": "(centres undefined)", "Potency": "inconclusive: 20 µM [activator, single point]"}, {"smiles": "Cc1ccc(N2C(=O)C3C4C=CC(CC4)C3C2=O)cc1[N+](=O)[O-]", "note": "(centres undefined)", "activity, positive = growth rescue": "inactive: 2.7%"}, {"smiles": "COc1ccc(-c2nc(C#N)c(NCCCN3CCOCC3)o2)cc1", "Potency": "inconclusive: 12.6 µM [activator, partial curve, poor fit]"}, {"smiles": "COc1ccc(C(c2oc(CO)cc(=O)c2O)c2oc(CO)cc(=O)c2O)cc1", "Potency": "active: 4.47 µM"}, {"smiles": "CCOc1ccc(C(=O)NC(=S)NCc2cccnc2)cc1[N+](=O)[O-]", "Potency": "inconclusive: 3.55 µM [activator, partial curve, poor fit]"}, {"smiles": "Cc1cc([N+](=O)[O-])ccc1-c1ccc(/C=N/NC(=O)c2ccc(Br)o2)o1", "Potency": "inconclusive: 20 µM [activator, single point]"}, {"smiles": "C#CCOc1ccc(OC)cc1C(c1c(C)[nH][nH]c1=O)c1c(C)[nH][nH]c1=O", "Potency": "inconclusive: 17.8 µM [activator, single point]"}, {"smiles": "C/C(=N\\NC(=S)NC(C)C)c1ccc(Cl)s1", "Potency": "inconclusive: 1.78 µM [activator, single point]"}, {"smiles": "COc1cccc(C(=O)N2CCC(n3nccc3NC(=O)CCOc3ccccc3)CC2)c1", "Potency": "inconclusive: 12.6 µM [activator, single point]"}, {"smiles": "C=CCNc1ncnc2c1[nH]c1ccc(C)cc12", "activity, positive = growth rescue": "inactive: 3.63%"}, {"smiles": "CCn1c(SCC(=O)N2CCOCC2)nc2c(c1=O)SC(C)C2", "note": "(centres undefined)", "activity, positive = growth rescue": "inactive: -11%"}, {"smiles": "CC(=O)Nc1ccc(S(=O)(=O)Nc2nnc(C(C)(C)C)s2)cc1", "Potency": "inconclusive: 14.1 µM [activator, partial curve]"}, {"smiles": "Cc1cc(C)cc(-n2nnn(C3C/C(=N/NC(N)=S)C4OCC3O4)c2=S)c1", "note": "(centres undefined)", "Potency": "inconclusive: 11.2 µM [activator, single point]"}, {"smiles": "c1cc2nncn2nc1N1CCCC1", "activity, positive = growth rescue": "inactive: 16%"}, {"smiles": "O=c1cc(NS(=O)(=O)c2ccccc2)nc(SCc2ccc(Cl)cc2)[nH]1", "Potency": "inconclusive: 0.282 µM [activator, full curve, poor fit]"}, {"smiles": "CCc1cc2c(-c3ccccc3)cc(=O)oc2c(CN2CCOCC2)c1O", "Potency": "inconclusive: 12.6 µM [activator, partial curve]"}, {"smiles": "O=C(COc1ccc(Cl)cc1Cl)Nc1ccccn1", "activity, positive = growth rescue": "inactive: -26.8%"}, {"smiles": "COc1ccc(CN2CCN(Cc3ccc4cc(F)ccc4n3)CC2CCO)c(C)c1C", "note": "(centres undefined)", "Potency": "inconclusive: 15.8 µM [activator, single point]"}, {"smiles": "Nc1cccc(CP(=O)(c2ccccc2)c2ccccc2)c1", "activity, positive = growth rescue": "inactive: 0.329%"}, {"smiles": "CC1CC(C)CN(C(=O)c2ccc(CSc3nc4ccncc4[nH]3)cc2)C1", "note": "(centres undefined)", "activity, positive = growth rescue": "inactive: 12.6%"}, {"smiles": "Fc1cccc(Nc2cc(-n3cccn3)ncn2)c1", "activity, positive = growth rescue": "inactive: -3.58%"}, {"smiles": "O=C(NCc1ccc(F)cc1)C1CCN(C(=O)Nc2ccc(F)cc2)CC1", "Potency": "inconclusive: 0.282 µM [activator, full curve, poor fit]"}, {"smiles": "CC(=NCCO)c1c(O)n(C)c(=O)n(C)c1=O", "Potency": "inconclusive: 2.82 µM [activator, single point]"}, {"smiles": "Cc1ccc(NC(=O)Cn2ccnc2)cc1C", "Potency": "inconclusive: 22.4 µM [activator, single point]"}, {"smiles": "CC(=O)c1cc2c(cc1NC(=O)CCNC(=O)c1ccccc1Cl)OCO2", "Potency": "inconclusive: 4.47 µM [activator, single point]"}, {"smiles": "CC1=CC(C)(C)N2C(=O)C3(C(C#N)=C(N)OC4=C3C(=O)CC(C)(C)C4)c3c(C)c(C)cc1c32", "note": "(centres undefined)", "Potency": "inconclusive: 10 µM [activator, partial curve, poor fit]"}, {"smiles": "N/C(=N\\OC(=O)COc1ccc(Br)cc1Cl)c1cccnc1", "Potency": "inconclusive: 3.98 µM [activator, partial curve]"}, {"smiles": "CC1CCCCC1NC1=NCCS1", "note": "(centres undefined)", "Potency": "inconclusive: 22.4 µM [activator, single point]"}, {"smiles": "CN(CC(=O)Nc1ccc(Cl)c(C(F)(F)F)c1)C(=O)C1CC(=O)N(C2CCCC2)C1", "note": "(centres undefined)", "activity, positive = growth rescue": "inactive: 4.15% [at 6.58 µM]"}, {"smiles": "COc1cccc(CNC(=O)c2nnn(CC(=O)Nc3cc(C)ccc3C)c2N)c1", "Potency": "inconclusive: 2.82 µM [activator, full curve]"}, {"smiles": "COc1ccc(/C(C)=N/Nc2ncc(Cl)cc2Cl)c(O)c1", "Potency": "inconclusive: 2.51 µM [activator, full curve]"}, {"smiles": "CC(C)c1c(C(=O)N/N=C/c2ccc(Cl)cc2Cl)nnn1-c1nonc1N", "Potency": "inconclusive: 3.16 µM [activator, single point]"}, {"smiles": "COc1ccc(/C=C2/NC(=O)CNC2=O)cc1", "activity, positive = growth rescue": "inactive: 2.38%"}, {"smiles": "O=C(C1CCN(Cc2ccccc2O)CC1)N1CCN(Cc2ccc3c(c2)OCO3)CC1", "Potency": "inconclusive: 3.98 µM [activator, single point]"}, {"smiles": "O=C(Nc1ccc(F)cc1)c1ccccc1", "Potency": "inconclusive: 4.47 µM [activator, single point]"}, {"smiles": "COC(=O)Nc1ccc(S(=O)(=O)Nc2ccc(O)cc2)cc1", "Potency": "inconclusive: 20 µM [activator, single point]"}]}]}
